# Source: PubChem BioAssay AID2685 (National Center for Advancing Translational Sciences (NCATS), 2010)
# Out of some 320,000 compounds screened, about 2,100 (0.66%) were called active. This list was built around the results that the source calls inconclusive (neither active nor inactive); the mix of calls is not that of the screen. Calls come from the whole dose curve; as a rule, active = well fitted inhibition curve with a large enough effect in the signal ratio, with a control signal flat (not every such curve was filed as active); inconclusive = small, poorly fitted or top-dose-only effect, or effect the other way, or a change in a side signal; inactive = flat fitted curve, though single readings scatter; the % refers to the signal ratio. Potencies beside an inconclusive call are fits to weak or partial responses and may not hold up.
# Assay: qHTS Assay for Lipid Storage Modulators in Drosophila S3 Cells
# Settings: BODIPY lipid droplet fluorescence, 18-24 h, cells fed with added oleic acid; lipid storage change, negative = inhibition: at 46.1 µM (top of the series) unless noted
# Method in brief: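 Drosophila S3 cells got compounds at several concentrations plus oleic acid (400 uM solution). Laser-scanning cytometry with 488 nm excitation read lipid droplets at 500-530 nm and cells at 575-640 nm. Percent activity was relative to 20 uM Triacsin C.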
# % is set by controls: 0 for no effect and ±100 for the full control effect; potency is the fitted concentration of half-maximal effect.
Compound,"lipid storage change, negative = inhibition",Potency
O=C(O)C1CC(O)CN1S(=O)(=O)c1ccc2ccccc2c1 (configuration not stated),inconclusive: 8.41%,
Cc1ccc(CCNC(=O)C2CCC(=O)N2C(C)C)cc1 (configuration not stated),inconclusive: -29.4%,
O=C(C1CCN(S(=O)(=O)N2CCC3(CC2)OCCO3)CC1)N1CCCCC1,inconclusive: -10.1%,
COc1ccc(NC(=O)C2CCCN(S(=O)(=O)c3c(C)[nH]c(=O)[nH]c3=O)C2)cc1 (configuration not stated),inconclusive: 7.86%,
CC(OC(=O)/C(C#N)=C/c1ccc(N(C)C)cc1)C(=O)N(C)Cc1ccccc1 (configuration not stated),inconclusive: -100%,
COc1cccc(NC(=O)CN(C)C(=O)c2ccccc2CCc2ccccc2)c1,,"inconclusive: 9.2 µM [falling, partial curve, poor fit]"
Cc1ccccc1Nc1cccc2nonc12,,"inconclusive: 29.1 µM [falling, single point]"
COc1ccc(Cc2c(O)nc(SCC(C)C)[nH]c2=O)cc1,,"inconclusive: 29.1 µM [falling, single point]"
CCCNC(=O)c1ccc(COc2cccc3ccccc23)o1,inconclusive: -100%,
CCCn1c(SCc2ccon2)nc2ccccc2c1=O,inconclusive: 4.01%,
Cc1csc(NC(=O)c2nc3nccc(C)n3n2)n1,inconclusive: 0.436%,
COCCn1c(SCC(=O)NC(=O)NCc2ccccc2)nc2ccccc21,inconclusive: 103%,
Cc1cccc(NC(=O)CSc2nc3ccc(N4C(=O)c5ccccc5C4=O)cc3s2)c1C,inconclusive: -18.5%,
Cc1ccnc(NC(=O)CCC(=O)N(CC(=O)NCCc2ccccc2)c2ccccc2F)c1,,"inconclusive: 29.1 µM [falling, partial curve, poor fit]"
Cc1ccc(S(=O)(=O)Cn2nnnc2CN2CCN(Cc3ccc4c(c3)OCO4)CC2)cc1,inconclusive: 212%,
CC(=O)N1CCOc2ccc(S(=O)(=O)NCc3ccccc3Cl)cc21,,"inconclusive: 0.0517 µM [activator, full curve, poor fit]"
O=C1CCN(Cc2cccnc2)CCN1[C@H](CO)c1ccccc1,,"inconclusive: 29.1 µM [activator, single point]"
CN(CC(=O)NCCc1ccc(F)cc1)Cc1cccc(Cl)c1,inconclusive: 67.9%,
Cc1cc(S(=O)(=O)N2CCCC(C)C2)ccc1-n1cnnn1 (configuration not stated),inconclusive: 308%,
COc1cccc(NC(=S)N(CCc2c(C)[nH]c3ccccc23)Cc2cccs2)c1,inconclusive: 0.7%,
COCCCn1c(SCc2cccc(OC)c2)nc2cc(OC)c(OC)cc2c1=N,,"inconclusive: 20.6 µM [falling, single point]"
CC1(C)OC(=O)N(CCc2ccccc2)C1(C)O (configuration not stated),,"inconclusive: 2.31 µM [falling, partial curve]"
O=C(CCNS(=O)(=O)c1ccc(Cl)cc1)NCc1cccs1,inconclusive: -20.8%,
COc1cc(C(=O)N2CCN(C(=O)C3CCCO3)CC2)cc(OC)c1OC (configuration not stated),,"inconclusive: 2.31 µM [activator, full curve, poor fit]"

# Part of the list above, as tab-separated lines.
Compound	lipid storage change, negative = inhibition	Potency
Cc1ccc(CCNC(=O)C2CCC(=O)N2C(C)C)cc1 (configuration not stated)	inconclusive: -29.4%	
COc1cccc(NC(=O)CN(C)C(=O)c2ccccc2CCc2ccccc2)c1		inconclusive: 9.2 µM [falling, partial curve, poor fit]
Cc1ccc(S(=O)(=O)Cn2nnnc2CN2CCN(Cc3ccc4c(c3)OCO4)CC2)cc1	inconclusive: 212%	
O=C1CCN(Cc2cccnc2)CCN1[C@H](CO)c1ccccc1		inconclusive: 29.1 µM [activator, single point]

# The list goes on:

Compound,"lipid storage change, negative = inhibition",Potency
CCOC(=O)c1ccc(N/C(=N/S(=O)(=O)c2ccccc2)c2ccccc2)cc1,inconclusive: 4.8%,
CCCCn1c(NCc2ccc3c(c2)OCO3)nc2ccccc21,inconclusive: -2.47%,
Cc1ccccc1C(=O)N1CCC(C(=O)Nc2ccc(F)cc2)CC1,,"inconclusive: 29.1 µM [rising, single point]"
Cc1ccccc1N1C(S)=C(C#N)C(=O)NC1c1ccco1 (configuration not stated),inconclusive: -10.8%,
O=C(COc1cccc2cccnc12)Nc1ccccc1N1CCOCC1,inconclusive: -7.59%,
CN1CCC(N(C)S(=O)(=O)c2ccc(NC(=O)COc3ccc(Cl)cc3)cc2)CC1,,"inconclusive: 14.6 µM [falling, single point]"
COc1ccccc1CNC(=O)c1cc(-c2ccncc2)nc2c(Cl)cccc12,inconclusive: -68.3%,
CCOc1ccccc1NC(=O)CSc1ccc(-c2ccco2)nn1,,"inconclusive: 0.461 µM [activator, single point]"
CNC(=O)c1nc(C)c(C2(C)CC(c3cccc([N+](=O)[O-])c3)=NO2)s1 (configuration not stated),,"inconclusive: 6.51 µM [activator, single point]"
COc1ccc(CN(Cc2ccc(C(=O)O)cc2)C(=S)Nc2cccc(C)c2)cc1OC,,"inconclusive: 6.51 µM [cytotoxic, single point]"
COCCCNC(=O)c1ccc(C(=O)NCCCOC)cc1,,"inconclusive: 6.51 µM [activator, partial curve, poor fit]"
COc1ccc(OC(=O)C2CC(=O)N(c3ccc(C)cc3)C2)cc1 (configuration not stated),inconclusive: -3.63%,
Cc1ccc(C(=O)O)cc1S(=O)(=O)Nc1ccccc1C(=O)NC1CC1,inconclusive: -5.09%,
Cc1ccc(S(=O)(=O)N(C)c2ccc(OCC(=O)OCC(=O)N(CC#N)c3ccccc3)cc2)cc1,inconclusive: -10.4%,
CCOc1ccc(NC(=O)C2=C(C)C(=O)OC23CCC(C)CC3)cc1 (configuration not stated),inconclusive: 21.9%,
COc1cc(NC(=O)C(C)Oc2ccccc2)ccc1NC(=O)COc1ccccc1 (configuration not stated),inconclusive: -52.1%,
CCc1ccc(-c2cc(C)no2)cc1S(=O)(=O)N1CCOc2ccccc21,,active: 16.4 µM
CNC(=S)N/N=C/c1cn(Cc2ccc(F)cc2)c2ccccc12,inactive,
CCCCn1c(N)c(N(CCOC)C(=O)C(C)N2C(=O)c3ccccc3C2=O)c(=O)[nH]c1=O (configuration not stated),inconclusive: 36.8%,
COc1ccccc1C(=O)COC(=O)CCN=C1NS(=O)(=O)c2ccccc21,,"inconclusive: 18.4 µM [falling, single point]"
CCC(CO)NCc1ccc(OCC(O)c2ccccc2)c(OC)c1 (configuration not stated),,"inconclusive: 6.51 µM [falling, single point]"
COc1cc(C2=NOC(C(=O)Nc3ccc(C)cc3)C2)cc(OC)c1OC (configuration not stated),,"inconclusive: 7.31 µM [falling, partial curve, poor fit]"
COc1ccc2[nH]cc(CCNC(=O)C3CC(=O)N(c4ccc(Cl)cc4)C3)c2c1 (configuration not stated),inconclusive: -35.4%,
CCOc1ccc(S(=O)(=O)Nc2cccc(C(=O)NCCCN3CCCC3=O)c2)cc1,inconclusive: 11.1%,

Compound,"lipid storage change, negative = inhibition",Potency
Cc1[nH]c2c(C)cccc2c1CN1CCC(CO)(Cc2ccccc2)CC1,inconclusive: 20.4%,
O=C(c1ccc(-n2cnnn2)cc1)N1CCOCC1,inconclusive: -8.12%,
Cc1ccc(S(=O)(=O)N2CCCCC2)cc1C(=O)NCC1CCCO1 (configuration not stated),inconclusive: 18.1%,
CCOc1ccc(N(CC(=O)Nc2c(C)n(C)n(-c3ccccc3)c2=O)S(=O)(=O)c2ccc(F)cc2)cc1,,"inconclusive: 10.3 µM [falling, partial curve, poor fit]"
C[C@H]1CN=C(Nc2ccccc2)N1CC1CCCCC1,,"inconclusive: 29.1 µM [activator, single point]"
CC(C)(C)OC(=O)NCC1CCN(S(=O)(=O)Cc2ccccc2)CC1,inconclusive: -18.5%,
COc1ccc(-c2csc3nc(C(C)C)oc(=O)c23)cc1OC,inconclusive: 36.1%,
O=C(c1cc2cc(Br)ccc2o1)N1CCN(c2ccccc2)CC1,,"inconclusive: 6.51 µM [activator, partial curve, poor fit]"
Cc1c(C(=O)NC(=S)Nc2ccccc2N2CCCC2)cccc1[N+](=O)[O-],,"inconclusive: 1.84 µM [activator, full curve]"
COc1ccc(CNC(NC(=O)c2ccccc2)(C(F)(F)F)C(F)(F)F)cc1,,"inconclusive: 29.1 µM [falling, single point]"
CCCCN(C(=O)c1ccc(-c2ccc([N+](=O)[O-])cc2)o1)c1c(N)n(CC(C)C)c(=O)[nH]c1=O,inconclusive: -8.22%,
COc1ccc(NC(=O)CCC(=O)OC(C(=O)c2ccccc2)c2ccccc2)cc1 (configuration not stated),inactive,
COc1ccc2c(c1)O[C@@H](c1ccc3c(c1)OCO3)[C@H](OC(=O)Nc1cc(OC)c(OC)c(OC)c1)C2=O,,"inconclusive: 2.06 µM [activator, full curve]"
C=CCn1c(=NC(=O)C2CC2)sc2cc(NC(C)=O)ccc21,,"inconclusive: 0.326 µM [activator, partial curve, poor fit]"
CCOC1(OCC)N=C(N)C2(C#N)C(c3ccc(NC(C)=O)cc3)C12C#N (configuration not stated),inconclusive: -1.35%,
COc1ccc(NS(=O)(=O)c2cc(NC(=O)c3ccncc3)ccc2N2CCOCC2)cc1,inconclusive: 19.2%,
Cc1cccc(/C=N/n2c(-c3ccncc3)n[nH]c2=S)c1,inconclusive: -8.47%,
CC1=C(C#N)C(NC(=O)c2ccco2)(C(F)(F)F)C(=O)N1 (configuration not stated),,"inconclusive: 1.16 µM [falling, single point]"
COc1ccc(NC(=O)CN(C)C(=O)c2ccc(OCc3ccccc3)c(OC)c2)cc1,inconclusive: 5.22%,
S=c1[nH]nc(-c2cc(-c3ccccc3)n[nH]2)n1/N=C/c1ccc(Br)s1,inconclusive: -49.2%,
CCOC(=O)NC(=O)c1cn(-c2ccc(OC)cc2)c(=O)[nH]c1=O,inconclusive: -14.7%,
COc1cccc(C2CC(=O)N3CN(c4ccccc4F)CSC3=C2C#N)c1 (configuration not stated),,"inconclusive: 3.66 µM [falling, full curve]"
COc1cc(CCC(=O)NNC(=O)c2cccc(Cl)c2)cc(OC)c1OC,,"inconclusive: 6.51 µM [falling, single point]"
O=C(NC(=S)N(CCCCO)C1CCCCC1)c1sc2ccccc2c1Cl,inconclusive: 14%,
